Laboratory results: US20240158505A1 (published 2024)
These are yes or no findings as the source states them, for the method shown. Some results given as binding are weak or reduced against the parent protein; the word gives no strength. Where a sequence is shown, tags or fusion partners need not be part of it.

T1: Recombinant Human B7-H3 Fc chimera Protein (Rndsystem, Cat #1027-B3-100) (human) (UniProt Q5ZPR3)
T1 sequence (looked up): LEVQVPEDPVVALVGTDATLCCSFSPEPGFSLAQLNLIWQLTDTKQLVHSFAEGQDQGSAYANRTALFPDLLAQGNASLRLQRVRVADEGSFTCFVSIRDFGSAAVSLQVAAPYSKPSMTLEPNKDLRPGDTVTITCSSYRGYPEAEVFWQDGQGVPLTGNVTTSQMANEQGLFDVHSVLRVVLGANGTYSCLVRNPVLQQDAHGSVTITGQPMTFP


Target: T1, Recombinant Human B7-H3 Fc chimera Protein (Rndsystem, Cat #1027-B3-100) (human)
Experiment: ELISA, plate coated with recombinant human B7-H3, anti-HA tag HRP detection

| Binder | binding |
| --- | --- |
| #1 antibody (antibody, V domains shown) VH: EVQLLESGGGLVQPGGSLRLSCAASGFTFSSYAMSWVRQAPGKGLEWVSTITGSGGSTYYADSVKGRFTISRDNSKNTLYLQMNSLRAEDTAVYYCARYKSGAFDIWGQGTLVTVSS VL: EIVLTQSPGTLSLSPGERATLSCRASQGIGNYLGWYQQKPGQAPRLLIYTASSLQSGIPDRFSGSGSGTDFTLTISRLEPEDFAVYYCQQGYSTPSWTFGQGTKVEIK | binds |
| #2 antibody (antibody, V domains shown) VH: EVQLLESGGGLVQPGGSLRLSCAASGFTFSAYYMIWVRQAPGKGLEWVSITNPSGGVTSYAQKFQGRFTISRDNSKNTLYLQMNSLRAEDTAVYYCARVGGRGFDIWGQGTLVTVSS VL: EIVLTQSPGTLSLSPGERATLSCHASQGISNYVAWYQQKPGQAPRLLIYDASNRATGIPDRFSGSGSGTDFTLTISHLEPEDFAVYYCQQSYSTLLTFGQGTKVEIK | binds |
| #4 antibody (antibody, V domains shown) VH: EVQLLESGGGLVQPGGSLRLSCAASGFTFSSYGMHWVRQAPGKGLEWVSAISGSGTSIYYANSVKSRFTISRDNSKNTLYLQMNSLRAEDTAVYYCARGAGWFDYWGQGTLVTVSS VL: QSVLTQPPSASGTPGQRVTISCSGSTSNIGSNTVNWYQQLPGTAPKLLIYGKNIRPNGVPDRFSGSKSGTSASLAISGLHSEDEADYYCQSYDSSLSGWVFGGGTKLTVL | binds |
| #3 antibody (antibody, V domains shown) VH: EVQLLESGGGLVQPGGSLRLSCAASGFTFSTYYMTWVRQAPGKGLEWVSIINPRGGSTSYAEKFQGRFTISRDNSKNTLYLQMNSLRAEDTAVYYCARWNLGMDVWGQGTLVTVSS VL: EIVLTQSPGTLSLSPGERATLSCRVSQSISSYLNWYQQKPGQAPRLLIYDASHRATGIPDRFSGSGSGTDFTLTISRLEPEDFAVYYCQQYYAPSVTFGQGTKVEIK | binds |
| #6 antibody (antibody, V domains shown) VH: EVQLLESGGGLVQPGGSLRLSCAASGFTFSTYAISWVRQAPGKGLEWVSSIYYSGYTHYNPSLESRFTISRDNSKNTLYLQMNSLRAEDTAVYYCARGYSGWMDVWGQGTLVTVSS VL: QSVLTQPPSASGTPGQRVTISCGGNNIGSKSVHWYQQLPGTAPKLLIYDNNKRPSGVPNRFSGSKSGTSASLAISGLRSEDEADYYCAAWDDSLNVPVFGGGTKLTVL | binds |
| #5 antibody (antibody, V domains shown) VH: EVQLLESGGGLVQPGGSLRLSCAASGFTFSTYAMSWVRQAPGKGLEWVSAISGSGGSTLYADSVKGRFTISRDNSKNTLYLQMNSLRAEDTAVYYCARGGSATWAFDLWGQGTLVTVSS VL: QSVLTQPPSASGTPGQRVTISCSGSSSNIGSNYVYWYQQLPGTAPKLLIYRNNQRPSGVPDRFSGSKSGTSASLAISGLRSEDEADYYCGTWDSSLSGVVFGGGTKLTVL | binds |

Next, values leading:

| binding | Binder |
| --- | --- |
| binds | #7 antibody (antibody, V domains shown) VH: EVQLLESGGGLVQPGGSLRLSCAASGFTFSNFWIGWVRQAPGKGLEWVSWINPPGSITSYADSVKGRFTISRDNSKDTLYLQMNSLRAEDTAVYYCAREVGDVLDYWGQGTLVTVSS VL: QSVLTQPPSASGTPGQRVTISCTGTSSDIGRYNYVSWYQQLPGTAPKLLIYRNTQRPSGVPDRFSGSKSGTSASLAISGLRSEDEADYYCGTWDSSLNAYVFGGGTKLTVL |
| binds | #8 antibody (antibody, V domains shown) VH: EVQLLESGGGLVQPGSSLRLSCAASGFTFSSYWISWVRQAPGKGLEWVSEISPSGNTNYNPSLKSRFTISRDNSKNTLYLQMNSLRAEDTAVYYCAREVGDLLDYWGQGTLVTVSS VL: QSVLTQPPSASGTPGQRVTISCSGSNIGNNYVSWYQQLPGTAPKLLIYQDSKRPSGVPDRFSGSKSGTSASLAISGLRSEDEADYYCLVWDRSSDHFVFGGGTKLTVL |
| binds | #9 antibody (antibody, V domains shown) VH: EVQLLESGGGLVQPGGSLRLSCAASGFTFSSYAMNWVRQAPGKGLEWVSTISGSGGQTYYADSVKGRFTISRDNSKNTLYLQMNSLRAEDTAVYYCARWRSIWAFDYWGQGTLVTVSS VL: QSVLTQPPSASGTPGQRVTISCSDNNIGSKSVHWYQQLPGTAPKLLIYDNNKRPSGVPDRFSGSKSGTSASLAISGLRSEDEADYYCGTWDDSLSGPVFGGGTKLTVL |
